# Paper PMC6509187
# These are yes or no findings as the source states them, for the method shown. Binding seen in cells or lysates may run through a third protein. Here binding means that the protein was enriched with, or labelled near, the bait; the list need not be complete.
# Biological target: T1, DNAX activation protein of 12 kDa (DAP12) (pig (endogenous in PAMs)) (UniProt Q9TU45)
# T1 sequence: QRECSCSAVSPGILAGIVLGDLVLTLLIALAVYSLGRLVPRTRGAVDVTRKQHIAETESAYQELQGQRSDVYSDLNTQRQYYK
# Assay: affinity purification with mass spectrometry; PAMs infected with PRRSV (MOI = 1) for 1 h; IP with anti-DAP12 MAb, isotype IgG as control; SDS-PAGE, silver staining, discrepant bands analysed by MALDI-TOF MS
substance,measurement,value
nonmuscle myosin heavy chain IIA (NMHC-IIA) (pig (endogenous in PAMs)),binding,binds
